Measured values published in PubChem BioAssay AID504467 (National Center for Advancing Translational Sciences (NCATS), 2011).
The campaign covered roughly 330,000 compounds. About 7,700 (2.3%) were called active. This list was built around the results that the source calls inconclusive (neither active nor inactive); the mix of calls is not that of the screen. Calls follow the shape of the dose curve; as a rule, active = well fitted inhibition curve with a large enough effect; inconclusive = small, poorly fitted or top-dose-only effect, or effect the other way; inactive = flat fitted curve, though single readings scatter. Potencies of inconclusive entries are doubtful fits and often do not repeat.

Assay: qHTS screen for small molecules that inhibit ELG1-dependent DNA repair in human embryonic kidney (HEK293T) cells expressing luciferase-tagged ELG1; also: nearly all actives have a fitted effect of over 55% in size
Settings: HEK293T ELG1-luciferase reporter, luminescence, 16 h, DNA damage induced by 5-fluorouridine; series mostly up to 46.1 µM
Summary of the method: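 Overnight (16 hr) co-exposure of 2,000 cells/well to 5-fluorouridine and compound at 37 °C preceded detection. Luciferase was quantified via ONE-Glo luminescence; loss of signal denotes inhibition.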
Potency is read from the fitted curve at half-maximal effect.

| SMILES | Potency |
| --- | --- |
| COc1ccc(C2CC(c3cccs3)=NN2C(=O)CSc2nncn2C)cc1OC (configuration not stated) | inactive |
| COc1ccc(C(=O)N2CCN(Cc3ccc4c(c3)OCO4)CC2)cc1OC | inactive |
| CN1CCc2c(sc3nc(NN)n(Cc4ccccc4)c(=O)c23)C1 | inconclusive: 0.184 µM [activator, single point] |
| C=CCN=C1NN=C(c2cc(C)n(CCOC)c2C)CS1 | inconclusive: 0.259 µM [activator, partial curve] |
| Cc1cc(CN2CCCCC2)oc1C(=O)O | inconclusive: 20.6 µM [activator, single point] |
| COc1ccc(C(=O)Nc2ccc(N3CCCC3)cc2)cc1OC | inconclusive: 3.98 µM [activator, full curve, poor fit] |
| COc1cc(/C=C2\SC(=O)N(CCNC(=O)c3cnc(C)cn3)C2=O)cc(OC)c1OC | inconclusive: 20.6 µM [inhibitor, partial curve] |
| CCn1c(-c2ccccc2)c(C(=O)CCl)c2ccccc21 | inactive |
| S=C(NCCN1CCOCC1)N/N=C/c1ccccc1 | inactive |
| C=CCN(c1ccccc1OC)S(=O)(=O)c1ccc(Cl)c(C(=O)Nc2ccc(N3CCOCC3)cc2)c1 | active: 7.3 µM |
| COCCNC(=S)N/N=C(\C)c1ccc(O)cc1 | inconclusive: 29.1 µM [activator, partial curve, poor fit] |
| COc1ccc(-c2cc(C(=O)N3CCN(c4ccccn4)CC3)c3ccccc3n2)cc1 | inconclusive: 29.1 µM [inhibitor, single point] |
| COc1ccc(C2CC(=O)CC(=O)C2n2cncn2)cc1 (configuration not stated) | inconclusive: 1.64 µM [activator, partial curve] |
| O=C(COC(=O)c1c2c(nc3ccccc13)CCCC2)Nc1ccc2c(c1)OCO2 | inconclusive: 23.1 µM [inhibitor, single point] |
| Nc1ccc(C(=O)Nc2cccc(N)c2)cc1 | inconclusive: 16.4 µM [activator, single point] |
| CCN(CCCNC(=O)c1ccc(N2CCCC2=O)cc1)c1cccc(C)c1 | inconclusive: 14.6 µM [inhibitor, partial curve] |

| SMILES | Potency |
| --- | --- |
| Cc1cccc(N2CCN(C(=O)CCNS(=O)(=O)c3cccs3)CC2C)c1 (configuration not stated) | inactive |
| Cc1ccc(CNC(=O)c2nnn(CC(=O)Nc3cccc(C)c3C)c2N)cc1 | inconclusive: 16.4 µM [activator, partial curve] |
| O=C1CN(C(=O)CC2C(=O)NCCN2Cc2ccccc2C(F)(F)F)CCN1 (configuration not stated) | inconclusive: 32.6 µM [activator, partial curve, poor fit] |
| Oc1ccc(Oc2ccc3c(C(F)(F)F)cc(C(F)(F)F)nc3n2)cc1 | active: 18.4 µM |
| COc1ccc(Cl)cc1NC(=O)CN(C)C(=O)c1ccc2c(c1)CC(c1ccccc1)OC2=O (configuration not stated) | inconclusive: 20.6 µM [inhibitor, partial curve] |
| CCCCC(=O)N1CCN(c2nc3ccc(OCC)cc3s2)CC1 | inactive |
| CC(=O)c1cnc2c(-c3cccc(Br)c3)cnn2c1C | inconclusive: 20.6 µM [activator, partial curve] |
| Cc1nn(-c2ccccc2)nc1CNC(=O)c1ncoc1-c1ccccc1 | inactive |
| CCCCn1c(SCC(=O)N2c3ccccc3Sc3ccccc32)nc2c1c(=O)n(C)c(=O)n2C | inconclusive: 20.6 µM [inhibitor, partial curve] |
| Cc1cccc2nc3c(nc12)-c1ccccc1C3=O | inconclusive: 20.6 µM [activator, single point] |
| CCN(C(=O)CSc1cc(-c2ccccc2)c2ccc(OC)cc2n1)C1CCS(=O)(=O)C1 (configuration not stated) | inconclusive: 29.1 µM [inhibitor, single point] |
| Cc1onc(-c2ccccc2Cl)c1C(=O)N(Cc1nc(-c2ccccc2)no1)C1CCCCC1 | inconclusive: 0.82 µM [inhibitor, full curve, poor fit] |
| CCn1c(SCC(=O)Nc2nc3ccccc3s2)nnc1-c1ccc(Br)cc1 | inactive |
| Cc1ccc2nc(-c3ccc(NC(=O)c4cccnc4)cc3)oc2c1 | inconclusive: 4.11 µM [activator, single point] |
| O=C(N/N=C\c1ccc(F)cc1)c1ccc(F)cc1 | inconclusive: 14.6 µM [activator, partial curve] |
| CCc1c(C)nc2cc(-c3ccc(OC)c(OC)c3)nn2c1N1CCCC1 | active: 13 µM |

Fetched by structure from the entries so far:

| SMILES | Potency |
| --- | --- |
| CCc1c(C)nc2cc(-c3ccc(OC)c(OC)c3)nn2c1N1CCCC1 | active: 13 µM |
| Cc1ccc(CNC(=O)c2nnn(CC(=O)Nc3cccc(C)c3C)c2N)cc1 | inconclusive: 16.4 µM [activator, partial curve] |
